Results published in PubChem BioAssay AID504834 (National Center for Advancing Translational Sciences (NCATS), 2011).
Screen size: about 320,000 compounds; about 22,000 (6.9%) were called active. This list was built around the results that the source calls inconclusive (neither active nor inactive); the mix of calls is not that of the screen. The call rests on the fitted dose curve; in most records, active means well fitted inhibition curve with a large enough effect; inconclusive means small, poorly fitted or top-dose-only effect, or another doubt; inactive means no such curve, though single readings can be large or run the other way. Potencies of inconclusive entries are doubtful fits and often do not repeat.
Potency means the concentration at half of the fitted maximal effect.

Assay: Primary qHTS for delayed death inhibitors of the malarial parasite plastid, 96 hour incubation
Details: P. falciparum luciferase reporter growth; series mostly up to 28.7 µM
Outline: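 96 h incubation, 37 C, 5% CO2, of luciferase-reporter P. falciparum-infected RBCs (2% hematocrit, 0.05% parasitemia final) with test compounds; endpoint luminescence.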
In the case of `Cc1ccc(S(=O)(=O)c2c(C)cc(C)nc2Oc2cccc(C)c2C)cc1`, the Potency is reported as inconclusive: 0.0465 µM [inhibitor, full curve, poor fit].
In the case of `CCc1cccc(NC(=O)COC(=O)/C=C/c2cccs2)c1`, the Potency is reported as “inactive”.
With `O=C1C2CC=CCC2C(=O)N1c1ccc(NCCc2ccccc2)c([N+](=O)[O-])c1` (stereo not drawn) the Potency was inconclusive: 0.0026 µM [inhibitor, full curve, poor fit].
For `O=C(Nc1ncccc1O)c1cccc(S(=O)(=O)N2CCCC2)c1`, the Potency was “inactive”.
With `O=C(CCC1CCCC1)NCCS(=O)(=O)N1CCN(c2ccc(F)cc2)CC1` the Potency was “inactive”.
For `CCc1ccc(NC(=O)c2cc(CC(C)C)on2)cc1`, the Potency was inconclusive: 9.28 µM [inhibitor, single point].
For `CC(C)(C)c1ccc(CSc2cnn(C(C)(C)C)c(=O)c2Cl)cc1`, the Potency was inconclusive: 18.5 µM [inhibitor, single point].
For `O=C(NCc1ccccc1)c1cccn(Cc2cccc(Cl)c2)c1=O`, the Potency was inconclusive: 10.4 µM [inhibitor, single point].
For `CC(=O)NCCn1c(SCc2ccccc2F)nc2ccccc2c1=O`, the Potency was inconclusive: 18.5 µM [inhibitor, single point].
For `CC(=O)C(c1ccccc1)C(c1ccccc1)C(C)[N+](=O)[O-]` (stereo not drawn), the Potency was “inactive”.
With `N=c1c(S(=O)(=O)c2ccc(F)cc2)cc2c(=O)n3ccccc3nc2n1CC1CCCO1` (stereo not drawn) the Potency was inconclusive: 14.7 µM [inhibitor, partial curve, poor fit].
With `COc1ccccc1N1CCN(CC(O)COc2ccc3c(c2)CCC3)CC1` (stereo not drawn) the Potency was inconclusive: 18.5 µM [inhibitor, single point].
For `COc1ccccc1COCC(O)CNCCc1ccc(C(F)(F)F)cc1` (stereo not drawn), the Potency was inconclusive: 18.5 µM [inhibitor, single point].
For `CCOc1ccc(NC(=O)CN2C(=O)CSC(C)C2=O)cc1` (stereo not drawn), the Potency was “inactive”.
In the case of `CCOc1ccc2nc(N3C(=O)C(O)=C(C(=O)c4ccco4)C3c3ccco3)sc2c1` (stereo not drawn), the Potency is reported as “inactive”.
In the case of `CC(C)Nc1ccccc1`, the Potency is reported as inconclusive: 14.7 µM [inhibitor, single point].
For `COc1ccc(OC)c2sc(N3CCN(C(=O)c4ccc5ncsc5c4)CC3)nc12`, the Potency was inconclusive: 5.86 µM [inhibitor, partial curve, poor fit].
In the case of `CCOC(=O)c1c(CSc2ccccc2)n(C)c2cc(Br)c(OC)c(O)c12`, the Potency is reported as inconclusive: 18.5 µM [inhibitor, single point].
In the case of `CC1CN(S(=O)(=O)c2cccc(C(=O)N=c3sccn3C)c2)CC(C)O1` (stereo not drawn), the Potency is reported as inconclusive: 7.38 µM [inhibitor, partial curve].
For `COc1ccc(C(=O)NCCCOC(=O)c2ccc(OC)cc2)cc1`, the Potency was inconclusive: 13.1 µM [inhibitor, single point].
With `Cc1ccc(C)c(NC(=O)CN(C)C(=O)c2cccc(S(=O)(=O)N3CCCC3)c2)c1` the Potency was inconclusive: 10.4 µM [inhibitor, single point].
With `S=C1CCC(c2ccc(Br)cc2)=NN1c1ccccc1` the Potency was “inactive”.
In the case of `CCOC(=O)Oc1ccc(C(=O)OCCCN(C)C)cc1OC`, the Potency is reported as “inactive”.
In the case of `OC1(c2ccccc2F)CCN(Cc2nnnn2Cc2ccc(F)cc2)CC1`, the Potency is reported as “inactive”.
For `COc1ccc2nc(C)c3c(c2c1)OC(C(C)(Cl)Br)C3` (stereo not drawn), the Potency was “inactive”.
In the case of `O=C(CCSCCC(=O)NCc1ccccc1)NCc1ccccc1`, the Potency is reported as inconclusive: 0.0033 µM [inhibitor, full curve, poor fit].
For `Cc1ccc(NC(=O)COc2ncnc3c(Cl)cc(Cl)cc23)cc1[N+](=O)[O-]`, the Potency was “inactive”.
In the case of `CC(=O)c1cccc(NC(=O)COC(=O)c2ccc3c(c2)OCO3)c1`, the Potency is reported as “inactive”.
In the case of `O=S(=O)(/N=C(/c1ccccc1)N1CCOCC1)c1ccc(F)cc1`, the Potency is reported as inconclusive: 18.5 µM [inhibitor, single point].
For `O=C(COC(=O)C1=COCCO1)Nc1ncc(Cl)cc1Cl`, the Potency was “inactive”.
In the case of `Cc1ccc(S(=O)(=O)N2CCCCC2)cc1NC(=O)COC(=O)c1ccc(=O)[nH]c1`, the Potency is reported as inconclusive: 9.28 µM [inhibitor, single point].
In the case of `Cc1nnc(N2C(=O)C(O)=C(C(=O)c3ccco3)C2c2ccc(C(C)C)cc2)s1` (stereo not drawn), the Potency is reported as inconclusive: 5.86 µM [inhibitor, partial curve, poor fit].
With `Cc1ccc(NC(=O)C2CCN(S(=O)(=O)c3c(C)nn(C)c3C)CC2)c(Cl)c1` the Potency was inconclusive: 2.08 µM [inhibitor, partial curve].
With `Brc1ccc(-c2ccc(/C=N/Nc3nc(N4CCOCC4)nc(N4CCOCC4)n3)o2)cc1` the Potency was “inactive”.
In the case of `CCC(CC)CN1CCN=C1N(C)C`, the Potency is reported as “inactive”.
For `COC(=O)CSc1nc2cc(Cl)ccc2c(=O)n1C1CCCC1`, the Potency was inconclusive: 13.1 µM [inhibitor, partial curve, poor fit].
In the case of `COc1ccc(C(=O)c2nccc3cc(OC)c(OC)cc23)cc1OC`, the Potency is reported as active: 0.738 µM.
With `COc1ccc(Cn2c(C)nc3c(c(=O)c4ccccc4n3C)c2=O)cc1` the Potency was inconclusive: 18.5 µM [inhibitor, partial curve, poor fit].
For `COc1ccc(CCNC(=O)Nc2cccc([N+](=O)[O-])c2)cc1`, the Potency was active: 13.1 µM.
With `COc1ccccc1OCC(=O)N/N=C/c1cccc2cccnc12` the Potency was active: 13.1 µM.
In the case of `CC(OC(=O)CCN=C1NS(=O)(=O)c2ccccc21)C(=O)Nc1ccc(F)c(F)c1F` (stereo not drawn), the Potency is reported as “inactive”.
In the case of `Cc1noc(C)c1COc1ccc(C(=O)OCC(=O)NCCN2C(=O)CSC2=O)cc1`, the Potency is reported as “inactive”.
With `CC(C)C(NS(=O)(=O)c1cccs1)C(=O)NCc1ccccc1Cl` (stereo not drawn) the Potency was inconclusive: 0.586 µM [inhibitor, full curve].
With `COc1ccc(NC(=O)c2c(-c3c(Cl)cccc3Cl)noc2C)cn1` the Potency was “inactive”.
In the case of `O=c1ccc(-c2nc3ccccc3n2Cc2ccccc2Cl)c[nH]1`, the Potency is reported as inconclusive: 20.8 µM [inhibitor, partial curve, poor fit].
For `CC(=O)CCc1oc2ccc(C)cc2c1-c1ccccc1`, the Potency was “inactive”.
In the case of `CCOC(=O)c1cnc(-c2ccccc2)nc1-c1ccccc1`, the Potency is reported as “inactive”.
With `CCC(C(=O)N1CCN(C(=O)c2ccco2)CC1)n1sc2ccccc2c1=O` (stereo not drawn) the Potency was inconclusive: 10.4 µM [inhibitor, single point].
In the case of `Cc1cc(C(=O)N/N=C/C=C/c2ccccc2)n[nH]1`, the Potency is reported as “inactive”.
With `Cc1ccc(C)c(NC(=O)C(Sc2nc3ccccc3c(=O)n2CC(C)C)c2ccccc2)c1` (stereo not drawn) the Potency was active: 2.62 µM.
In the case of `CC(=O)N(CC(C)(C)CC=C(C)C)c1ccccc1`, the Potency is reported as “inactive”.
With `COC(=O)CC1=C(C(=O)OC)C2(C(=O)Nc3c(C)cccc32)C(C#N)=C(N)O1` (stereo not drawn) the Potency was inconclusive: 4.15 µM [inhibitor, single point].
In the case of `COc1cc(OC)cc(C(=O)N(CCCN2C(=O)c3cccc4cccc(c34)C2=O)c2cccc(OC)c2)c1`, the Potency is reported as “inactive”.
In the case of `CC(C)CN(C(=O)c1ccc2c(c1)OCCO2)c1c(N)n(Cc2ccccc2)c(=O)[nH]c1=O`, the Potency is reported as “inactive”.
In the case of `C=CCn1c(SCC(N)=O)nc(C)cc1=O`, the Potency is reported as inconclusive: 4.15 µM [inhibitor, single point].
In the case of `O=C(Nc1sc2c(c1C(=O)O)CCCCC2)c1ccccc1`, the Potency is reported as inconclusive: 1.31 µM [inhibitor, full curve, poor fit].
For `COCCN(C(=O)CC1C(=O)NCCN1Cc1ccc(-c2ccccc2)cc1)C(C)C` (stereo not drawn), the Potency was “inactive”.
With `Cc1c(NC2=C(Cl)C(=O)N(c3ccccc3Cl)C2=O)c(=O)n(-c2ccccc2)n1C` the Potency was “inactive”.
With `CCOC(=O)C1=C(C)Nc2ncnn2C1c1cccnc1` (stereo not drawn) the Potency was “inactive”.
With `NS(=O)(=O)c1ccc(CCNC(=O)C2CCN(S(=O)(=O)c3c(Cl)cccc3Cl)CC2)cc1` the Potency was inconclusive: 9.28 µM [inhibitor, partial curve].
In the case of `O=C(NCCc1ccc(F)cc1)c1ccc2nccnc2c1`, the Potency is reported as “inactive”.
In the case of `O=C(CN1CCN(C(=O)N2CCCCC2)CC1)Nc1ccc(F)cc1`, the Potency is reported as inconclusive: 10.4 µM [inhibitor, single point].
With `COc1ccc(C2C(C(C)=O)=C(C)N=c3s/c(=C\c4cc(C)n(C)c4C)c(=O)n32)c(OC)c1` (stereo not drawn) the Potency was active: 8.28 µM.
For `CC1Cc2ccccc2N1Cc1ccc([N+](=O)[O-])cc1` (stereo not drawn), the Potency was inconclusive: 6.57 µM [inhibitor, partial curve].
With `CCc1cccc(NC(=O)C2CCCN2S(=O)(=O)c2ccc3c(c2)CC(C)N3C(C)=O)c1` (stereo not drawn) the Potency was inconclusive: 11.7 µM [inhibitor, partial curve, poor fit].
With `CCN(CC)C(=O)CSc1nnc(CNc2ccc(F)cc2)n1-c1ccccc1` the Potency was inconclusive: 0.104 µM [inhibitor, full curve, poor fit].
For `COc1ccc(-n2c(C)cc(C(=O)NC3CCCCC3)c2C)cc1`, the Potency was inconclusive: 10.4 µM [inhibitor, partial curve].
In the case of `COc1ccc(NC(=S)NCC(c2ccco2)N2CCCC2)cc1` (stereo not drawn), the Potency is reported as inconclusive: 18.5 µM [inhibitor, single point].
For `CCOC(=O)c1c(S(=O)(=O)NCC2CCN(Cc3cccc(F)c3)CC2)c(C)n(C)c1C`, the Potency was “inactive”.
In the case of `Cc1nc2nc[nH]n2c(=O)c1NS(C)(=O)=O`, the Potency is reported as inconclusive: 20.8 µM [inhibitor, partial curve, poor fit].
With `COC(=O)c1cc(S(=O)(=O)NCCc2ccc(C)cc2)c[nH]1` the Potency was inconclusive: 0.185 µM [inhibitor, full curve, poor fit].
For `O=c1c2ccc(Cl)cc2nc2n1CC/C2=C\c1cccc(O)c1`, the Potency was inconclusive: 18.5 µM [inhibitor, single point].
In the case of `O=C(CN1c2ccccc2Sc2ccccc21)N/N=C/c1ccc(Cl)cc1`, the Potency is reported as inconclusive: 11.7 µM [inhibitor, partial curve, poor fit].
